# Paper PMC6362314, “Both a Unique Motif at the C Terminus and an N-Terminal HEAT Repeat Contribute to G-Quadruplex Binding and Origin Regulation by the Rif1 Protein” (Molecular and Cellular Biology, 2018)
# Results are given in words; binding and its absence hold for the method and conditions named. Some results given as binding are weak or reduced against the parent protein; the word gives no strength.
# B1: Rif1 aa 1129 to 1400 mut2 polypeptide (domain or fragment, UniProt Q96UP3 1129-1400)
# chain: KIDETKNEATDMEESLTTPSGKVNKEVIVDDTSLRDEAIVPDKAIDVADNSNALLKENISSQSNRKADNNGTPSVNNSFTTANNDECSKENSQIEPEGQTASREGVLSTPRSTRKKRKLGRKSQSSNVNKEVAISEVSATLENVEVIERHGISEQGQNLDESACVLTNESSLSQTEIPEEKTENETTAVNGFENSKKRQFSSLLSGSIDTNNESNKVSSVEFDKSGPQDIIQSMTEATFEIEKNIQDLKSEEVQKLSDLLMAAARAAAAAIA
# B2: Rif1 N-terminal polypeptide (aa 1 to 1023) (domain or fragment, UniProt Q96UP3 1-1023)
# chain: MTKEIAVKEASNMLLQEPSTPSSQAVGLSSSPSSSIRKKKVNFSSELENSPGGNRPSFGLPKRGILKTSTPLSSIKQPNFQSFEGNESEKETSLQELQSSFCSGIENLQHVEKSARIETYSKLSSFLKIYTPSLPEDPIFPLLNQLCNFLLSDRCSNNSEGSPDFQLNTQANKLLSILLWHPTISSHIQPETATVFIEQSLNFLEGPKLTKALAAQHLHLLSCQKCPLSIHPLCNRILDVCFNISFPSLVIGQERLAVLTKILSQFPLEFSRRVVDWAPYLLACLVDASRPIREKALLLALDLSKHLYHDKLVARTILANFRSDIKGTAFVLIMTEQFEKLVIEEDDGVYVAHAWAAIISVLGGARISSWEYFNTWLKIIQLCFNSMNPLTKCAAQTSWIRLIHEFSLSETLTQATKRLTLLCQPISMVLGSRNLPTVKNAAMTTLIALIYACLRPGISDAMLSLLWDSVIVNILEKCALKNEVTIFESSNILLALFNTLSNGVWKDDRLVCRESVEAKELPKLNPVWVRANCSRTIEPVKTLLLLAKPDHTVKTTTPARKQHIRGLSYEQSSSVWSTYIKCLASAGQKEIKRSVETGRAICCICSSLHKFLYSKSIRKDELYVERVSRFALMVKSAIEAFGINTFVEASYLVSDNQLVLIDQTKAIDSYDHVPISPLIYLLHSLALLTNGTLFSTVHAAYSSILSSIEEYHLRFGLKLMLLWDCVSPLSDDGTLVLARVLVSHEVSRLTSEALLSELKSRNGNNSVEEGFSEEERSILLKLLSWNVKFCSISDAGSVNNLLQQYFTAIYKFEGCGSVFPFVVDPFTTILDDVLSFEANKVYSFAISLMKVSTFESCTKELPPVTLPENIRQHLDSYNHMVELYNTLLQRLSSSDQVDLQCRYLHELSEFIKKIPKEFIFHTICKLSKGLIPCFLMNAFPQLEKSTTLQKSCTNFCILILQLLLNSTATASNILESLSPLLTSGLKSISKEVVLAAIKFWNQVFGKFESEEYPIELQKTISYL
# B3: Rif1 short N-terminal polypeptide (aa 1 to 444) (domain or fragment, UniProt Q96UP3 1-444)
# chain: MTKEIAVKEASNMLLQEPSTPSSQAVGLSSSPSSSIRKKKVNFSSELENSPGGNRPSFGLPKRGILKTSTPLSSIKQPNFQSFEGNESEKETSLQELQSSFCSGIENLQHVEKSARIETYSKLSSFLKIYTPSLPEDPIFPLLNQLCNFLLSDRCSNNSEGSPDFQLNTQANKLLSILLWHPTISSHIQPETATVFIEQSLNFLEGPKLTKALAAQHLHLLSCQKCPLSIHPLCNRILDVCFNISFPSLVIGQERLAVLTKILSQFPLEFSRRVVDWAPYLLACLVDASRPIREKALLLALDLSKHLYHDKLVARTILANFRSDIKGTAFVLIMTEQFEKLVIEEDDGVYVAHAWAAIISVLGGARISSWEYFNTWLKIIQLCFNSMNPLTKCAAQTSWIRLIHEFSLSETLTQATKRLTLLCQPISMVLGSRNLPTVKNAAMT
# Key:
# [1] = target: Rif1 aa 1129 to 1400 mut2 polypeptide (S. pombe) (UniProt Q96UP3); assay: SEC; gel filtration of purified aa 1129 to 1400 wild type and mut2; self-association; both purified
# [2] = target: Rif1 N-terminal polypeptide (aa 1 to 1023) (S. pombe) (UniProt Q96UP3); assay: native gel or EMSA; N-terminal polypeptides on a native gel, data not shown; self-association; both purified
# [3] = target: Rif1 short N-terminal polypeptide (aa 1 to 444) (S. pombe) (UniProt Q96UP3); assay: as above
binder,measurement,setting,value
B1,binding,[1],binds
B2,binding,[2],binds
B3,binding,[3],binds
